Out of some 220,000 compounds screened, about 2,400 (1.1%) were called active. The shares of active, inactive and inconclusive entries below differ from those in the screen. The call rests on the fitted dose curve; in most records, active means well fitted inhibition curve with a large enough effect; inconclusive means small, poorly fitted or top-dose-only effect, or effect the other way; inactive means no such curve, though single readings can be large or run the other way. A potency beside an inconclusive call is a rough fit, not a confirmed value.
Assay: qHTS Multiplex Assay to Identify Dual Action Probes in a Cell Model of Huntington: Aggregate Formation (GFP); further: nearly all actives have a fitted effect of over 60% in size
Conditions: PC12 HttQ103-GFP aggregates, Acumen cytometry, 40 h; activity change, negative = inhibition: at 46.1 µM (top of the series) unless noted
How it was run: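 PC12/HTTQ103-GFP, ecdysone-inducible; teb 100 nM; cpd qHTS titration; GFP aggregates read on laser cytometer, Ex 488/Em 500-530 nm.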
On the % scale 0 is the no-effect control and ±100 the full control effect; potency means the concentration at half of the fitted maximal effect.

Row | SMILES | Potency | activity change, negative = inhibition
1 | Cc1ccccc1C(=O)N1CCN(c2nc(N3CCOCC3)nc(N3CCOCC3)n2)CC1 | inconclusive: 0.562 µM [inhibitor, partial curve, poor fit] | –
2 | O=C(N/N=C/c1ccncc1)c1ccccc1OCc1ccc(Br)cc1 | inconclusive: 35.5 µM [inhibitor, single point] | –
3 | FC(F)(F)c1cccnc1N1CCN(c2ncnc3nc[nH]c23)CC1 | inconclusive: 14.1 µM [inhibitor, partial curve, poor fit] | –
4 | CC(NC(=O)COc1ccccc1-c1ccccc1)c1ccccc1 (stereo not drawn) | inconclusive: 22.4 µM [inhibitor, single point] | –
5 | Cc1ccccc1/C=C1\SC(=S)N(/N=C/c2cc([N+](=O)[O-])ccc2O)C1=O | – | inactive: -9.3%
6 | Cc1ccc(-c2nc(NC(=O)c3nn(C)cc3[N+](=O)[O-])sc2C)cc1C | active: 7.94 µM | –
7 | CCN(CC)c1ccc2c(Cl)c(Br)c(=O)oc2c1 | inconclusive: 35.5 µM [inhibitor, single point] | –
8 | O=C(Nc1ccc2c(c1)CCC2)C1CCN(c2c3c(nc4ncnn24)CCC3)CC1 | active: 11.2 µM | –
9 | Cc1cc(C(=O)COC(=O)c2cccn2C)c(C)n1Cc1ccco1 | inconclusive: 35.5 µM [inhibitor, single point] | –
10 | Cc1cc(N2CCCCC2)n2ncc(-c3ccccc3)c2n1 | inconclusive: 25.1 µM [inhibitor, single point] | –
11 | Cc1sc2ncnc(N(C)Cc3cccs3)c2c1C | inconclusive: 35.5 µM [inhibitor, single point] | –
12 | CN1CCN(Cc2nc3ccccc3c(=O)n2Cc2nc(-c3ccccc3F)cs2)CC1 | inconclusive: 35.5 µM [activator, single point] | –
13 | CCn1nnnc1-c1ccc(OC)c(S(=O)(=O)Nc2ccc(C)c(C)c2)c1 | – | inactive: -6.5%
14 | Cn1c2ccccc2c2n[nH]c(=O)nc21 | – | inactive: -15.1%
15 | O=C(CCC(=O)Nc1ccc(Cl)cc1Cl)N/N=C/c1ccc([N+](=O)[O-])o1 | inconclusive: 35.5 µM [inhibitor, single point] | –
16 | CCOC(=O)C1=C(C)NC(=O)NC1C (stereo not drawn) | inconclusive: 0.316 µM [inhibitor, full curve, poor fit] | –
17 | CCc1nc(SCC(=O)NCCc2ccccc2)n[nH]1 | inconclusive: 35.5 µM [inhibitor, single point] | –
18 | Cc1cccc(-n2nnc3c(=O)n(CC(=O)Nc4cc(C)on4)cnc32)c1 | – | inactive: 0.352%
19 | O=S(=O)(/N=C(/Nc1ccc(Cl)c(S(=O)(=O)Nc2ccccc2Cl)c1)c1ccc(F)cc1)c1ccccc1 | inconclusive: 31.6 µM [inhibitor, single point] | –
20 | CN(c1ccccc1)S(=O)(=O)c1ccc(NC(=S)NC(=O)c2ccccc2)cc1 | inconclusive: 31.6 µM [inhibitor, single point] | –
21 | CCC(CO)[n+]1c(C)cc(/C=C2\Sc3ccccc3N2Cc2ccccc2)cc1C (stereo not drawn) | active: 20 µM | –
22 | COC(=O)/C=C1\OC(c2ccccc2)=CC1=O | – | inactive: 16.4%
23 | CNC(=S)N1CCN(c2ccc(Cl)c(Cl)c2)CC1 | inconclusive: 11.2 µM [inhibitor, single point] | –

Row | SMILES | Potency | activity change, negative = inhibition
24 | CCCCCCCCCCCCCCCC[N+](C)(C)CC | active: 14.1 µM | –
25 | O=C(NC(=S)N1CCN(Cc2ccc3c(c2)OCO3)CC1)c1cccc(Br)c1 | inconclusive: 35.5 µM [inhibitor, single point] | –
26 | CC(C)c1ccc(-c2nn(-c3ccccc3)cc2C2C(C#N)=C(N)OC3=C2C(=O)CC(C)(C)C3)cc1 (stereo not drawn) | inconclusive: 3.55 µM [inhibitor, full curve] | –
27 | Cc1sc2nc(SCc3nc(-c4ccccc4)no3)n(-c3ccccc3)c(=O)c2c1C | – | inactive: -6.72%
28 | COc1ccc(CNCCc2ccc(Cl)cc2)cc1OCc1ccccc1 | inconclusive: 10 µM [inhibitor, partial curve] | –
29 | O=C(c1ccncc1)c1ccc(NS(=O)(=O)c2ccc(Br)s2)cc1 | inconclusive: 25.1 µM [inhibitor, single point] | –
30 | O=C(NC(Nc1nc2ccc([N+](=O)[O-])cc2s1)(C(F)(F)F)C(F)(F)F)c1cccnc1 | inconclusive: 7.08 µM [inhibitor, partial curve] | –
31 | CCCCCOc1ccc(NC(=O)C(=O)NCCCn2ccnc2)cc1 | inconclusive: 12.6 µM [inhibitor, partial curve] | –
32 | CC(C)(C)c1ccc(C(=O)N2CCN(c3nc4ccccc4o3)CC2)cc1 | inconclusive: 3.98 µM [inhibitor, full curve, poor fit] | –
33 | COc1ccccc1Sc1ccccc1/C=N/NC(N)=O | inconclusive: 0.562 µM [activator, full curve] | –
34 | CCOC(=O)N1CCC(NC(=O)c2ccc(CS(=O)(=O)c3c(Cl)cccc3Cl)o2)CC1 | inconclusive: 1.26 µM [inhibitor, single point] | –
35 | COc1ccccc1NS(=O)(=O)c1cc(NC(=O)c2cccs2)ccc1N1CCCC1 | inconclusive: 7.08 µM [activator, partial curve] | –
36 | C=CCn1c(SCc2csc(-c3ccc(C)cc3)n2)nnc1-c1ccccc1OC | inconclusive: 4.47 µM [inhibitor, partial curve] | –
37 | O=c1c(Cl)c(Cl)cnn1Cc1nnc(-c2ccccc2Br)o1 | inconclusive: 22.4 µM [inhibitor, single point] | –
38 | Cc1ccc(NC(=O)CCCCCN2C(=O)c3ccccc3C2=O)nc1 | inconclusive: 31.6 µM [inhibitor, single point] | –
39 | CN(CCCCCNC(=O)/C=N/O)Cc1ccccc1 | – | inactive: -2.5%
40 | Cc1oc(-c2ccc(Cl)cc2)nc1CN1CCC(C(=O)NCCCN2CCOCC2)CC1 | inconclusive: 31.6 µM [inhibitor, single point] | –
41 | Clc1cc(Cl)c(OCc2nc(-c3ccccn3)no2)cc1Cl | inconclusive: 0.141 µM [activator, partial curve, poor fit] | –
42 | O=C(/C=C/c1ccco1)N1CCCC(c2ccccc2)C1 (stereo not drawn) | – | inactive: -11.8% [at 9.22 µM]
43 | CN1CCN(c2nc(-c3ccc(Cl)s3)cs2)CC1 | – | inactive: 9.13%
44 | O=C(c1ccc(Cl)cc1)N1CCC(c2nc(-c3cccs3)no2)CC1 | inconclusive: 14.1 µM [inhibitor, single point] | –
45 | Nc1[nH]nc2nc(N3CCCC3)nc(-c3ccccc3)c12 | inconclusive: 22.4 µM [inhibitor, single point] | –
46 | Cc1ccc(C)c(NC(=S)NNC(=O)c2sccc2C)c1 | – | inactive: -16.7%

In the list so far, these contain a furan ring, fused or not.
Row | SMILES | Potency | activity change, negative = inhibition
9 | Cc1cc(C(=O)COC(=O)c2cccn2C)c(C)n1Cc1ccco1 | inconclusive: 35.5 µM [inhibitor, single point] | –
15 | O=C(CCC(=O)Nc1ccc(Cl)cc1Cl)N/N=C/c1ccc([N+](=O)[O-])o1 | inconclusive: 35.5 µM [inhibitor, single point] | –
34 | CCOC(=O)N1CCC(NC(=O)c2ccc(CS(=O)(=O)c3c(Cl)cccc3Cl)o2)CC1 | inconclusive: 1.26 µM [inhibitor, single point] | –
42 | O=C(/C=C/c1ccco1)N1CCCC(c2ccccc2)C1 (stereo not drawn) | – | inactive: -11.8% [at 9.22 µM]

Remaining list, next part:

Row | SMILES | Potency | activity change, negative = inhibition
47 | N#C/C(=C\c1ccc(N2CCCCC2)o1)C(N)=O | – | inactive: 5.23% [at 9.22 µM]
48 | OCc1cn(-c2ccccc2)nc1-c1ccc2c(c1)OCCO2 | inconclusive: 35.5 µM [inhibitor, single point] | –
49 | Cc1ccc(C(=O)NCCSc2snnc2C)cc1 | inconclusive: 35.5 µM [activator, single point] | –
50 | CCCCOCCCNc1ncnc2c1[nH]c1ccccc12 | inconclusive: 1 µM [inhibitor, full curve] | –
51 | O=C(/C=C/c1ccc(Cl)cc1Cl)NCCSc1ccccc1 | inconclusive: 12.6 µM [inhibitor, single point] | –
52 | CN1CCN(CC(=O)Nc2ccccc2[N+](=O)[O-])CC1 | inconclusive: 1.12 µM [activator, single point] | –
53 | Cc1ccc2cc(CN(CC3CCCO3)C(=S)Nc3ccccc3)c(=O)[nH]c2c1C (stereo not drawn) | inconclusive: 11.2 µM [inhibitor, partial curve] | –
54 | O=C(NNC(=O)c1c(F)cccc1F)c1ccccc1-n1cccc1 | – | inactive: 14.4%
55 | COc1ccc(CN2C(=O)NC3(CCCCC3)C2=O)cc1F | inconclusive: 0.562 µM [inhibitor, full curve, poor fit] | –
56 | Cc1cccc(Nc2ncnc3ccccc23)c1 | active: 12.6 µM | –
57 | CC(C)c1onc(C(=O)NC(C)c2ccccc2)c1[N+](=O)[O-] (stereo not drawn) | active: 4.47 µM | –
58 | Cc1cccnc1Nc1nc(-c2ccccn2)cs1 | inconclusive: 0.891 µM [inhibitor, partial curve] | –
59 | CS(=O)(=O)Nc1ccc(Cc2ccc(NS(C)(=O)=O)cc2)cc1 | inconclusive: 11.2 µM [inhibitor, partial curve] | –
60 | CCN1CCn2c1nc(N1CCCCC1)nc2=O | inconclusive: 3.55 µM [inhibitor, single point] | –
61 | O=C(Nc1cccc(S(=O)(=O)N2CCOCC2)c1)c1cc2c(s1)CCC2 | – | inactive: -11.7%
62 | CN(C)/C=C/C(=O)c1nnn(C2CCCCC2)c1NC1CCCCC1 | inconclusive: 25.1 µM [inhibitor, single point] | –
63 | CCN(CC)S(=O)(=O)c1ccc(-c2nnc(SCC(=O)c3ccc(OC)cc3)o2)cc1 | inconclusive: 1.26 µM [inhibitor, partial curve, poor fit] | –
64 | COc1ccc(C2=NN(C(=O)c3cccc([N+](=O)[O-])c3)C(c3cccc([N+](=O)[O-])c3)C2)cc1 (stereo not drawn) | inconclusive: 1.26 µM [activator, single point] | –
65 | CCN1CCN(CCNC(=O)c2ccc(/C=C3/Sc4ccccc4N(Cc4cccc(C)c4)C3=O)cc2)CC1 | inconclusive: 35.5 µM [inhibitor, single point] | –
66 | COc1ccc(-n2nnnc2SCC(=O)Nc2nnc(C)s2)cc1OC | inconclusive: 0.1 µM [activator, full curve] | –
67 | Cc1ccc(N2C(=O)C3C4C=CC(CNC(=S)N5CCN(c6cccc(C)c6)C(C)C5)(O4)C3C2=O)cc1 (stereo not drawn) | inconclusive: 35.5 µM [inhibitor, single point] | –
68 | OCC(CO)(CO)NCc1ccc(-c2ccccc2)cc1 | active: 11.2 µM | –

Reference: PubChem BioAssay AID1688 (National Center for Advancing Translational Sciences (NCATS), 2009)
